Target: T1, Aromatase (Homo sapiens, UniProt P11511)
T1 sequence (P11511 whole entry): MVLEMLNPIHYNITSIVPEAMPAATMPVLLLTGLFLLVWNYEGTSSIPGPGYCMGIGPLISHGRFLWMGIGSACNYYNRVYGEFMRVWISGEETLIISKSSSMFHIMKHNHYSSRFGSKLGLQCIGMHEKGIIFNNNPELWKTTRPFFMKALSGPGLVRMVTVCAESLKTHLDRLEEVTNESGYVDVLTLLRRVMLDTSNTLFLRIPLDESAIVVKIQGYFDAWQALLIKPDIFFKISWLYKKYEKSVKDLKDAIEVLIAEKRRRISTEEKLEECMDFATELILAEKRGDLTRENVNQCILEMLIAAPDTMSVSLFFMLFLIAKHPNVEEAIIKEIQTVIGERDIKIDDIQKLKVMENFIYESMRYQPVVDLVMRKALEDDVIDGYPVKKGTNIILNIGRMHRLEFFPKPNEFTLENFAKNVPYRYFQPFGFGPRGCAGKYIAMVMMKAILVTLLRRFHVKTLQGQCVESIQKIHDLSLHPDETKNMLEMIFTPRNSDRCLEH
Test: Relative potency for inhibition of aromatase binding compared to aminoglutethimide

Which “Relative Potency” value does the source give for COc1ccc2c(c1)OC(c1ccccc1)CC2n1ccnc1 (stereo unspecified) here?
The value was 57.1.
